We go through 2 molecules from article PMC12891897, “Blocking TRIM47-mediated HNF4α degradation suppresses hepatocellular carcinoma progression” (Acta Pharmaceutica Sinica. B, 2025).

By UniProt entry, the sequences of proteins in these tests, tags left out. Where a name states a change or a piece, a line headed by the entry shows the natural chain unless it says otherwise.
UniProt Q96LD4: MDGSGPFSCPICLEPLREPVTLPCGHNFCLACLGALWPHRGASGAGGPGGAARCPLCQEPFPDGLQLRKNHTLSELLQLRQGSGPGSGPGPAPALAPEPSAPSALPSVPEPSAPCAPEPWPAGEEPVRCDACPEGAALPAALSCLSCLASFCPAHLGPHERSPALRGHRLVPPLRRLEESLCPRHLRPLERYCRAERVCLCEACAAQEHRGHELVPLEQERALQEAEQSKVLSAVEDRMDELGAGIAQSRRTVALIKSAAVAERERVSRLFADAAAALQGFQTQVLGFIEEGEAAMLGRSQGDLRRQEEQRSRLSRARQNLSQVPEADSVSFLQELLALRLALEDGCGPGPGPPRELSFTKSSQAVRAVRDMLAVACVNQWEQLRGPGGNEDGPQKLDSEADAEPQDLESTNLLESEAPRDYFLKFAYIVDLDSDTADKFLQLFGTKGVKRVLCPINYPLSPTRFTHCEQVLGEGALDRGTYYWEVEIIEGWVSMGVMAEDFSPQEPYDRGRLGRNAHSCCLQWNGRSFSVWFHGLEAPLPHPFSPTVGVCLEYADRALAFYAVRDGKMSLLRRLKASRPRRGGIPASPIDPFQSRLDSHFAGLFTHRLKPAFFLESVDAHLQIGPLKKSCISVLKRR

Experiment [1] has as its target T1, HNF4α, endogenous in MHCC-L cells (human (endogenous in MHCC-L)) (UniProt P41235).
T1 sequence: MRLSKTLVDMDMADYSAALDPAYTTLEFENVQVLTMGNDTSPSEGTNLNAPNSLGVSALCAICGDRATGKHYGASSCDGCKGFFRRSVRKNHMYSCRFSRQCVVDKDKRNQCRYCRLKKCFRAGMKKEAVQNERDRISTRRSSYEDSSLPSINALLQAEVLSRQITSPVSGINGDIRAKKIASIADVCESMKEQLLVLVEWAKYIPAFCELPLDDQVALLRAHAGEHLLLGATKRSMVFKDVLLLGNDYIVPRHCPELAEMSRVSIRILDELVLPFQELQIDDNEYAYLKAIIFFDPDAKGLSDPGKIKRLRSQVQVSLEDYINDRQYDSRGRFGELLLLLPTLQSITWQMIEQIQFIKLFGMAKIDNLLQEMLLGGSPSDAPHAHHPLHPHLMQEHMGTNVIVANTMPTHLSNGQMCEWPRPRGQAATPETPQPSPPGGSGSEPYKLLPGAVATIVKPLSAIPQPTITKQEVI
Put plainly: co-IP; endogenous; MHCC-L lysate with HNF4α antibody (or IgG) and protein G agarose at 4 °C overnight, Western blotting. Background: A western blot detects proteins with antibodies after separation by electrophoresis.

Experiment [2] concerns the target T2, V5-tagged HNF4α (hepatocyte nuclear factor 4alpha), full length (amino acids 1–474) (human) (UniProt P41235).
T2 sequence: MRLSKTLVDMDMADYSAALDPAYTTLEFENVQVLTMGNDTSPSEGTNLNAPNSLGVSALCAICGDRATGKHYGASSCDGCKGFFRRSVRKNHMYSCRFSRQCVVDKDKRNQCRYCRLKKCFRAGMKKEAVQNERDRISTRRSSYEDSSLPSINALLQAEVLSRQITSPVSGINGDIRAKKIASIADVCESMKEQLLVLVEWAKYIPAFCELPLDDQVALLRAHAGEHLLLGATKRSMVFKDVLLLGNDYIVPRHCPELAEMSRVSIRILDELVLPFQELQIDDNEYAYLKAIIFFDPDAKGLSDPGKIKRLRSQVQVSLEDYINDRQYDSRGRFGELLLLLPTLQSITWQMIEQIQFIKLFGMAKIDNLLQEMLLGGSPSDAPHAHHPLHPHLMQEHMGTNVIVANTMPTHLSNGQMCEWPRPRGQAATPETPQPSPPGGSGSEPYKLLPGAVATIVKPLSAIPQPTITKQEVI
Put plainly: co-IP; Hep3B cells with V5-HNF4α, endogenous TRIM47; cells treated with the indicated concentrations of CZ-2401 for 24 h.

For experiment [3], the target named is Flag-tagged TRIM47 (tripartite motif 47), full length (amino acids 1–638) (human) (UniProt Q96LD4). The experiment can be described thus: proximity ligation; Duolink in situ PLA in Huh7 cells transfected with Flag-TRIM47 and V5-HNF4α for 48 h, fixed with 4% PFA, confocal microscopy.
Experiment [4] shares this target. The experiment can be described thus: co-IP; Huh7 cells transfected with Flag-TRIM47 and V5-HNF4α, Western blotting.
The target is the same in experiment [5]. Put plainly: co-IP; HEK293T cells co-transfected with Flag-TRIM47 and V5-HNF4α (or truncations and mutants) for 48 h; IP lysis buffer; anti-Flag or anti-V5 affinity gel overnight at 4 °C; wash 20 mmol/L Tris-HCl pH 7.4, 100 mmol/L NaCl, 0.5% NP40, 0.5% Triton-X100, 10% glycerol; Western blotting; in one panel cells treated with CZ-2401 (10 μmol/L) for 24 h.

No constants are given. Whether binding was seen depends on the method and setting. In cells and extracts the contact can be indirect. Some results given as binding are weak or reduced against the parent protein; the word gives no strength. For some assays here: Tags and fused reporters may be left off the sequences shown.

On to “TRIM47, endogenous (from UniProt Q96LD4-1 1-638) (enzyme)”, for which the binding entry in experiment [1] and in experiment [2] was “binds” each time.

B1: V5-tagged HNF4α (hepatocyte nuclear factor 4alpha), full length (amino acids 1–474) (protein, UniProt P41235-1 1-474)
chain: MRLSKTLVDMDMADYSAALDPAYTTLEFENVQVLTMGNDTSPSEGTNLNAPNSLGVSALCAICGDRATGKHYGASSCDGCKGFFRRSVRKNHMYSCRFSRQCVVDKDKRNQCRYCRLKKCFRAGMKKEAVQNERDRISTRRSSYEDSSLPSINALLQAEVLSRQITSPVSGINGDIRAKKIASIADVCESMKEQLLVLVEWAKYIPAFCELPLDDQVALLRAHAGEHLLLGATKRSMVFKDVLLLGNDYIVPRHCPELAEMSRVSIRILDELVLPFQELQIDDNEYAYLKAIIFFDPDAKGLSDPGKIKRLRSQVQVSLEDYINDRQYDSRGRFGELLLLLPTLQSITWQMIEQIQFIKLFGMAKIDNLLQEMLLGGSPSDAPHAHHPLHPHLMQEHMGTNVIVANTMPTHLSNGQMCEWPRPRGQAATPETPQPSPPGGSGSEPYKLLPGAVATIVKPLSAIPQPTITKQEVI
As to B1, the binding entry in experiment [3], in experiment [4] and in experiment [5] was “binds” each time.
